Publication PMC3819381
Results are given in words; binding and its absence hold for the method and conditions named. In cells and extracts the contact can be indirect. Some entries that bind do so weakly or less than the wild type. For some of these results: Where a sequence is shown, tags or fusion partners need not be part of it. One block for each binder: values may come before it.

Chains of the proteins cited; added tags and fusions are not shown.
UniProt P51532: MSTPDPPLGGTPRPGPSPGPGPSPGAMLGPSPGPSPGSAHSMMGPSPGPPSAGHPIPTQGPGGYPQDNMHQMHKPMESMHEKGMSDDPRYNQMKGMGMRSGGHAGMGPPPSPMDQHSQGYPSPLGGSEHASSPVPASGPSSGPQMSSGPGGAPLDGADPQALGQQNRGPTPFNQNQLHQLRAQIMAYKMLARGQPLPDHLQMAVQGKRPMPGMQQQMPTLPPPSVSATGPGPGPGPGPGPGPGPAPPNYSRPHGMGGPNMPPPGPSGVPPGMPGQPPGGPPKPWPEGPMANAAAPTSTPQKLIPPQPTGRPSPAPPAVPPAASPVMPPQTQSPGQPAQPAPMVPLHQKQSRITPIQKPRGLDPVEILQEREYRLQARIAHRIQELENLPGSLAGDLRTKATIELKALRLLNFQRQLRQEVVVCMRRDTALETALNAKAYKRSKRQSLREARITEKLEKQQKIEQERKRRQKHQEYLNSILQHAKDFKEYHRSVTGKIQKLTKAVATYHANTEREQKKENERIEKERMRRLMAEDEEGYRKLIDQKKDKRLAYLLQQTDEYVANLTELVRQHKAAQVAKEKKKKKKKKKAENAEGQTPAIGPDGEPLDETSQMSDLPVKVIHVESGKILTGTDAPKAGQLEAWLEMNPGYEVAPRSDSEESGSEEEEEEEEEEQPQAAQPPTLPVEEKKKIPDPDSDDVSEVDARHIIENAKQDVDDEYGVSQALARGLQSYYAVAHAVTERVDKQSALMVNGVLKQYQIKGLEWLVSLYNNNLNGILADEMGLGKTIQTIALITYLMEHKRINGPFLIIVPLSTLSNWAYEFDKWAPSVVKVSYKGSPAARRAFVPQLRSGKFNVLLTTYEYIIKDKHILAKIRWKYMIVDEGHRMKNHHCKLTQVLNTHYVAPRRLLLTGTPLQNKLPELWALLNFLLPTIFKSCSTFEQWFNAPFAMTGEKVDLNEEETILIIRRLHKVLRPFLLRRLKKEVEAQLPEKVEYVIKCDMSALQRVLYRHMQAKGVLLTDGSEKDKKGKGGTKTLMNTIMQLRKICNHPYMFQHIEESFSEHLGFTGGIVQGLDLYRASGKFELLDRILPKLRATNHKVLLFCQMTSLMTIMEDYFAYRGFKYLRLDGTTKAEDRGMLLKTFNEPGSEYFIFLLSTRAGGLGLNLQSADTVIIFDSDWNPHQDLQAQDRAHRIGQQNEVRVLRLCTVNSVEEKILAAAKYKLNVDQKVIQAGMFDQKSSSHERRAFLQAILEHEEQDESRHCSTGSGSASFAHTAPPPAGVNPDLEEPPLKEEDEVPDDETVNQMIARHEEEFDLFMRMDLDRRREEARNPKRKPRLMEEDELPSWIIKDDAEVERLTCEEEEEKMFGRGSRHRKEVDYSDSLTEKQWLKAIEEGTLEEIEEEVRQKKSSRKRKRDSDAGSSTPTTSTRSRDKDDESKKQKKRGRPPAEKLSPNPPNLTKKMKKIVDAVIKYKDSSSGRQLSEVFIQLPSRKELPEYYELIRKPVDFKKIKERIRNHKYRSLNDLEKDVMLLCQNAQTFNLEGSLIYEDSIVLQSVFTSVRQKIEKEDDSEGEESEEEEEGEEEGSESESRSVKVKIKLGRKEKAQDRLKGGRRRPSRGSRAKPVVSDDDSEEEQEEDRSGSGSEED

Experiments:
[1] = target: T1, ATF2 (human (endogenous in K562 and in CD34+-derived erythroid cells)), P15336; assay: co-IP; 500 µg K562 nuclear extract, 2 µg ATF2 or Brg1 antibody (IgG control), protein A/G-agarose overnight, western blot; details: remark: other sources report otherwise
T1 chain: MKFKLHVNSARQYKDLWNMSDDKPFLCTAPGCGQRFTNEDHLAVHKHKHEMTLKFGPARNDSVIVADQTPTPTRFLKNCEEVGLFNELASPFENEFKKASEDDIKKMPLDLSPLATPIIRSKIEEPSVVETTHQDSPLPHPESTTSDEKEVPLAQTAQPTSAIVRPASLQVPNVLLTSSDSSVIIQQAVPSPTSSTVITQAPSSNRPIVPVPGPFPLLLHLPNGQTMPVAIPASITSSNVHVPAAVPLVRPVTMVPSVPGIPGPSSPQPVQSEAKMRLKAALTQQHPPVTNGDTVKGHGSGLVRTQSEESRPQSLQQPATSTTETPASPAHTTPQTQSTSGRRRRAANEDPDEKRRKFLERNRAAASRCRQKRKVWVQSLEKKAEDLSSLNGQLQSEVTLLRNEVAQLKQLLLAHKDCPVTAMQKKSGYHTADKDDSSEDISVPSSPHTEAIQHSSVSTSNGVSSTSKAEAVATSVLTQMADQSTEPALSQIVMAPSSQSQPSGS

[2] = target: CREB1 (human (endogenous in K562 and in CD34+-derived erythroid cells)), P16220; assay: co-IP; lysates (50 µg) of CD34+-derived erythroid cells at day 3, 7, 14 and 21 of erythropoietin-induced differentiation, IP with anti-CREB1 antibody (IgG control), western blot; details: remark: other sources report otherwise
[3] = target: T2, His-FLAG-tagged ATF2 (human (cDNA from K562 cells)), P15336; assay: co-sedimentation; 10-30% sucrose gradient in HEMG buffer, 4°C; 0.6 M NaCl heparin sepharose fractions dialysed against HEMG; fractions 10-17 by western blot; co-migration from 2 mDa peaking at 700 kDa; details: remark: other sources report otherwise
T2 chain: T1 chain

[4] = target: Brg1 (human (endogenous in K562 and in CD34+-derived erythroid cells)) (UniProt P51532); assay: co-IP; 500 µg K562 nuclear extract, 2 µg ATF2 or Brg1 antibody (IgG control), protein A/G-agarose overnight, western blot

binding [1]: binds
binding [2]: binds
binding [3]: binds
B1: cJun, P05412 1-331 (protein)
chain: MTAKMETTFYDDALNASFLPSESGPYGYSNPKILKQSMTLNLADPVGSLKPHLRAKNSDLLTSPDVGLLKLASPELERLIIQSSNGHITTTPTPTQFLCPKNVTDEQEGFAEGFVRALAELHSQNTLPSVTSAAQPVNGAGMVAPAVASVAGGSGSGGFSASLHSEPPVYANLSNFNPGALSSGGGAPSYGAAGLAFPAQPQQQQQPPHHLPQQMPVQHPRLQALKEEPQTVPEMPGETPPLSPIDMESQERIKAERKRMRNRIAASKCRKRKLERIARLEEKVKTLKAQNSELASTANMLREQVAQLKQKVMNHVNSGCQLMLTQQLQTF

binding [4]: binds
B2: ATF2 (protein, UniProt P15336 1-505)
chain: T1 chain
